Survivor count and T/C data for 7 compounds are collected here from PubChem BioAssay AID192 (DTP/NCI, 2004).

The list does not hold the whole screen: it is rich in T/C values a quarter to a half above the control, in often repeated tests (any T/C) and in doses without a T/C. Further doses and runs are listed elsewhere. T/C gives the treated animals as a percentage of the vehicle group. Some doses have a count of surviving animals in place of a T/C: the source holds a T/C of zero for them, seemingly a mark for toxic or unscored doses. Some survivor counts are full or nearly so, which does not show that the dose was tolerated: the source hardly ever lists a survival T/C far under the control, and the zero likely stands for such cases as well. Counts of survivors are from the toxicity check (mostly the fifth day) where no day follows; animals may have died later. Schedules are NCI's codes, read here as Q, the interval in days (D) or hours (H), X, the number of doses. Some doses were run more than once; the values are given in rising order. Where survival is the endpoint, this PubChem deposit counts one and a half times the control or more as active, and values a quarter to a half above the control carry no call in these data; other NCI protocols may use other cut-offs. Some T/C values are followed by the survivors on the day toxicity was checked, most often the fifth; without a count, all were alive then.

The assay relates to BDF1 mice, B16 melanoma ip, median survival T/C. Description: NCI In Vivo Anticancer Drug Screen. Data for tumor model B16 Melanoma (intraperitoneal) in B6D2F1 (BDF1) mice. Conditions: T/C endpoint: median survival time, higher T/C = longer survival. The gist of the method:
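Vehicle-treated animals serve as the reference (C); treated animals (T) are scored for survival or tumor size after tumor transplantation.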

Where [1] appears, read: dose: 400.0 mg/kg/injection, schedule: Q01DX009 (ip), vehicle: saline with Tween-80.
Where [2] appears, read: dose: 0.05 mg/kg/injection, schedule: Q01DX009 (ip), vehicle: saline.
The mark [3] stands for this setting: dose: 3.7 micrograms/kg/injection, schedule: Q01DX009 (ip), vehicle: saline with Tween-80.
Where [4] appears, read: dose: 7.5 micrograms/kg/injection, schedule: Q01DX009 (ip), vehicle: saline with Tween-80.

`c1cc[c]([Pb]([S]c2nc3ccccc3[nH]2)([c]2ccccc2)[c]2ccccc2)cc1`: the survivor count is recorded as 10 of 10 (dose: 3.0 mg/kg/injection, schedule: Q01DX009 (ip), vehicle: Klucel (hydroxypropylcellulose) (HPC)); 10 of 10 (dose: 6.0 mg/kg/injection, schedule: Q01DX009 (ip), vehicle: Klucel (hydroxypropylcellulose) (HPC)); 8 of 10 (dose: 12.0 mg/kg/injection, schedule: Q01DX009 (ip), vehicle: Klucel (hydroxypropylcellulose) (HPC)).
As to `COC(=O)C1=C(N)CCc2ccccc21`, under setting [1], the survivor count is given as 7 of 10.
Consider `CNC1=C(N2CC2)C(=O)C(NC)=C(N2CC2)C1=O`, for which the T/C reads like this: (dose: 0.02 mg/kg/injection, schedule: Q01DX009 (ip), vehicle: saline) 128 % of control; under setting [2], 129 % of control. For the same compound, the survivor count under setting [2] is listed as 9 of 10; the survivor count (dose: 0.1 mg/kg/injection, schedule: Q01DX009 (ip), vehicle: saline) was 10 of 10; the survivor count (dose: 0.2 mg/kg/injection, schedule: Q01DX009 (ip), vehicle: saline) was 10 of 10; the survivor count (dose: 0.4 mg/kg/injection, schedule: Q01DX009 (ip), vehicle: saline) is recorded as 10 of 10.
Regarding `C#CCOCC1CN(C)C(=O)O1` (centres undefined), where the note is “dose: 50.0 mg/kg/injection, schedule: Q01DX009 (ip), vehicle: saline”, the T/C was 126 % of control.
For the compound `CSC1SCC2C(=O)N(C)C(C(C)C)C(=O)OCC(NC(=O)c3cnc4ccccc4n3)C(=O)NC(C)C(=O)N(C)C1C(=O)N(C)C(C(C)C)C(=O)OCC(NC(=O)c1cnc3ccccc3n1)C(=O)NC(C)C(=O)N2C` (centres undefined), the T/C reads like this: (dose: 1.9 micrograms/kg/injection, schedule: Q01DX009 (ip), vehicle: saline) 131 % of control; under setting [3], 138 % of control; (dose: 3.75 micrograms/kg/injection, schedule: Q01DX009 (ip), vehicle: clinical formulation) 127 % of control; (dose: 3.8 micrograms/kg/injection, schedule: Q01DX009 (ip), vehicle: saline) 137 % of control [9 of 10 alive]; (dose: 7.5 micrograms/kg/injection, schedule: Q01DX009 (ip), vehicle: clinical formulation) 140 % of control [9 of 10 alive]; under setting [4], 148 % of control. Further, the T/C runs as follows: (dose: 8.0 micrograms/kg/injection, schedule: Q01DX009 (ip), vehicle: other) 134 % of control; (dose: 15.0 micrograms/kg/injection, schedule: Q01DX009 (ip), vehicle: distilled water + alcohol) 143 % of control; (dose: 15.0 micrograms/kg/injection, schedule: Q01DX009 (ip), vehicle: saline) 138 % of control; (dose: 16.0 micrograms/kg/injection, schedule: Q01DX009 (ip), vehicle: other) 142 % of control; (dose: 16.0 micrograms/kg/injection, schedule: Q01DX009 (ip), vehicle: saline sonified) 135 % of control; (dose: 30.0 micrograms/kg/injection, schedule: Q01DX009 (ip), vehicle: Klucel (hydroxypropylcellulose) (HPC)) 127 % of control [8 of 10 alive]. For the same compound, the T/C is 148 % of control (dose: 30.0 micrograms/kg/injection, schedule: Q01DX009 (ip), vehicle: distilled water + alcohol); 148 % of control (dose: 30.0 micrograms/kg/injection, schedule: Q01DX009 (ip), vehicle: saline with Tween-80); 149 % of control (dose: 30.0 micrograms/kg/injection, schedule: Q01DX009 (ip), vehicle: saline); 147 % of control (dose: 60.0 micrograms/kg/injection, schedule: Q01DX009 (ip), vehicle: Klucel (hydroxypropylcellulose) (HPC)); 148 % of control [9 of 10 alive on day 10] (dose: 64.0 micrograms/kg/injection, schedule: Q01DX009 (ip), vehicle: saline sonified). Further, the survivor count runs as follows: under setting [3], 10 of 10; under setting [4], 10 of 10; (dose: 120.0 micrograms/kg/injection, schedule: Q01DX009 (ip), vehicle: clinical formulation) 10 of 10; (dose: 128.0 micrograms/kg/injection, schedule: Q01DX009 (ip), vehicle: saline sonified) 6 of 9 on day 10; (dose: 192.0 micrograms/kg/injection, schedule: Q01DX009 (ip), vehicle: saline sonified) 0 of 10 on day 10; (dose: 240.0 micrograms/kg/injection, schedule: Q01DX009 (ip), vehicle: clinical formulation) 9 of 10. Besides, the survivor count reads like this: (dose: 240.0 micrograms/kg/injection, schedule: Q01DX009 (ip), vehicle: distilled water + alcohol) 8 of 10; (dose: 240.0 micrograms/kg/injection, schedule: Q01DX009 (ip), vehicle: saline with Tween-80) 10 of 10; (dose: 480.0 micrograms/kg/injection, schedule: Q01DX009 (ip), vehicle: clinical formulation) 1 of 10; (dose: 480.0 micrograms/kg/injection, schedule: Q01DX009 (ip), vehicle: distilled water + alcohol) 1 of 10; (dose: 480.0 micrograms/kg/injection, schedule: Q01DX009 (ip), vehicle: saline with Tween-80) 8 of 10 and 10 of 10.
Consider `Cc1cc(N(C)C)cc(C)c1N=Nc1cc[n+]([O-])cc1`, for which the survivor count is, setting by setting: (dose: 100.0 mg/kg/injection, schedule: Q01DX009 (ip), vehicle: saline with Tween-80) 10 of 10; (dose: 200.0 mg/kg/injection, schedule: Q01DX009 (ip), vehicle: saline with Tween-80) 7 of 10; under setting [1], 0 of 10.
With `COc1cc(C(=O)Nc2ccc(N(C)C)cc2)cc(OC)c1OC`, the T/C (dose: 25.0 mg/kg/injection, schedule: Q04DX003 (ip), vehicle: saline) is 125 % of control and the T/C (dose: 100.0 mg/kg/injection, schedule: Q04DX003 (ip), vehicle: saline) was 136 % of control.
